Measurements reported in PubChem BioAssay AID1259405 (NCATS, 2018)
The whole screen tested about 50,000 reagents; below is a part drawn at random. Over the whole deposit, about 4,000 (8%) got an active call. 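Mouse siRNA library applied to hamster cells; one well for each siRNA.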 The numbers tell different reagents against one gene apart.

Screen: 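Mouse-designed siRNAs used to find CHO productivity engineering targets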 (primary screen)
Cell system: Chinese hamster CHO-K1 ovary cells with stable secreted eGFP expression
Knock-down reagent: single siRNA against mouse genes, 0.8 pmol siRNA per well (2 µl of 400 nM stock)
Time to read-out: 3 days
Detection: 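Per-well intracellular GFP measured by laser scanning cytometry, plus viability from ATP luminescence, each relative to plate median of non-targeting control wells, in %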
Direction: GFP, % of control: higher = more GFP per well, higher productivity; viability (ATP), % of control: higher = more viable cells (more ATP)
Call rule: 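Called active when intracellular GFP, relative to negative control, is at or above 120%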

{"Target gene": "Lrrc4c", "siRNA no.": 1, "GFP, % of control": 114, "viability (ATP), % of control": 74.3, "activity call": "inactive"}
{"Target gene": "Lrrc4c", "siRNA no.": 2, "GFP, % of control": 95.2, "viability (ATP), % of control": 74.8, "activity call": "inactive"}
{"Target gene": "Lrrc4c", "siRNA no.": 3, "GFP, % of control": 53.5, "viability (ATP), % of control": 85.6, "activity call": "inactive"}
{"Target gene": "Or14a259", "siRNA no.": 1, "GFP, % of control": 104, "viability (ATP), % of control": 67.7, "activity call": "inactive"}
{"Target gene": "Or14a259", "siRNA no.": 2, "GFP, % of control": 55.2, "viability (ATP), % of control": 70.3, "activity call": "inactive"}
{"Target gene": "Or14a259", "siRNA no.": 3, "GFP, % of control": 97.6, "viability (ATP), % of control": 46.2, "activity call": "inactive"}
{"Target gene": "Srbd1", "siRNA no.": 1, "GFP, % of control": 156, "viability (ATP), % of control": 70.2, "activity call": "active"}
{"Target gene": "Srbd1", "siRNA no.": 2, "GFP, % of control": 94.8, "viability (ATP), % of control": 86.9, "activity call": "inactive"}
{"Target gene": "Srbd1", "siRNA no.": 3, "GFP, % of control": 42.5, "viability (ATP), % of control": 46.2, "activity call": "inactive"}
{"Target gene": "Rab24", "siRNA no.": 1, "GFP, % of control": 80.8, "viability (ATP), % of control": 72.4, "activity call": "inactive"}
{"Target gene": "Rab24", "siRNA no.": 2, "GFP, % of control": 57.7, "viability (ATP), % of control": 77.6, "activity call": "inactive"}
{"Target gene": "Rab24", "siRNA no.": 3, "GFP, % of control": 70.2, "viability (ATP), % of control": 65, "activity call": "inactive"}
{"Target gene": "Rab11fip3", "siRNA no.": 1, "GFP, % of control": 99.7, "viability (ATP), % of control": 101, "activity call": "inactive"}
{"Target gene": "Rab11fip3", "siRNA no.": 2, "GFP, % of control": 77.4, "viability (ATP), % of control": 82.6, "activity call": "inactive"}
{"Target gene": "Rab11fip3", "siRNA no.": 3, "GFP, % of control": 80.7, "viability (ATP), % of control": 110, "activity call": "inactive"}
{"Target gene": "Zfpl1", "siRNA no.": 1, "GFP, % of control": 41.6, "viability (ATP), % of control": 60, "activity call": "inactive"}
{"Target gene": "Zfpl1", "siRNA no.": 2, "GFP, % of control": 95.2, "viability (ATP), % of control": 79.7, "activity call": "inactive"}
{"Target gene": "Ubap2l", "siRNA no.": 1, "GFP, % of control": 69, "viability (ATP), % of control": 64.7, "activity call": "inactive"}
{"Target gene": "Ubap2l", "siRNA no.": 2, "GFP, % of control": 114, "viability (ATP), % of control": 98.9, "activity call": "inactive"}
{"Target gene": "Ubap2l", "siRNA no.": 3, "GFP, % of control": 113, "viability (ATP), % of control": 87.2, "activity call": "inactive"}
{"Target gene": "Pcdhgb1", "siRNA no.": 1, "GFP, % of control": 99.9, "viability (ATP), % of control": 77.3, "activity call": "inactive"}
{"Target gene": "Pcdhgb1", "siRNA no.": 2, "GFP, % of control": 63.3, "viability (ATP), % of control": 50.1, "activity call": "inactive"}
{"Target gene": "Pcdhgb1", "siRNA no.": 3, "GFP, % of control": 104, "viability (ATP), % of control": 64.8, "activity call": "inactive"}
{"Target gene": "Polr1b", "siRNA no.": 1, "GFP, % of control": 73.2, "viability (ATP), % of control": 75, "activity call": "inactive"}
{"Target gene": "Polr1b", "siRNA no.": 2, "GFP, % of control": 100, "viability (ATP), % of control": 112, "activity call": "inactive"}
{"Target gene": "Lbr", "siRNA no.": 1, "GFP, % of control": 191, "viability (ATP), % of control": 97.3, "activity call": "active"}
{"Target gene": "Lbr", "siRNA no.": 2, "GFP, % of control": 68.2, "viability (ATP), % of control": 77.7, "activity call": "inactive"}
{"Target gene": "Lbr", "siRNA no.": 3, "GFP, % of control": 69.9, "viability (ATP), % of control": 78, "activity call": "inactive"}
{"Target gene": "Utrn", "siRNA no.": 1, "GFP, % of control": 36.5, "viability (ATP), % of control": 40.5, "activity call": "inactive"}
{"Target gene": "Utrn", "siRNA no.": 2, "GFP, % of control": 138, "viability (ATP), % of control": 111, "activity call": "active"}
{"Target gene": "Myo18a", "siRNA no.": 1, "GFP, % of control": 61.1, "viability (ATP), % of control": 77.3, "activity call": "inactive"}
{"Target gene": "Myo18a", "siRNA no.": 2, "GFP, % of control": 126, "viability (ATP), % of control": 77.6, "activity call": "active"}
{"Target gene": "Pcca", "siRNA no.": 1, "GFP, % of control": 80.8, "viability (ATP), % of control": 65, "activity call": "inactive"}
{"Target gene": "Pcca", "siRNA no.": 2, "GFP, % of control": 113, "viability (ATP), % of control": 75.1, "activity call": "inactive"}
{"Target gene": "Pcca", "siRNA no.": 3, "GFP, % of control": 98.9, "viability (ATP), % of control": 103, "activity call": "inactive"}
{"Target gene": "Stkld1", "siRNA no.": 1, "GFP, % of control": 90.3, "viability (ATP), % of control": 68.4, "activity call": "inactive"}
{"Target gene": "Stkld1", "siRNA no.": 2, "GFP, % of control": 109, "viability (ATP), % of control": 71.5, "activity call": "inactive"}
{"Target gene": "Stkld1", "siRNA no.": 3, "GFP, % of control": 99.9, "viability (ATP), % of control": 110, "activity call": "inactive"}
{"Target gene": "Nf2", "siRNA no.": 1, "GFP, % of control": 52.4, "viability (ATP), % of control": 78.8, "activity call": "inactive"}
{"Target gene": "Nf2", "siRNA no.": 2, "GFP, % of control": 50.6, "viability (ATP), % of control": 78.5, "activity call": "inactive"}
{"Target gene": "Cd53", "siRNA no.": 1, "GFP, % of control": 76.8, "viability (ATP), % of control": 62.7, "activity call": "inactive"}
{"Target gene": "Cd53", "siRNA no.": 2, "GFP, % of control": 81.7, "viability (ATP), % of control": 74, "activity call": "inactive"}
{"Target gene": "Cd53", "siRNA no.": 3, "GFP, % of control": 135, "viability (ATP), % of control": 48, "activity call": "active"}
{"Target gene": "Pum1", "siRNA no.": 1, "GFP, % of control": 53.8, "viability (ATP), % of control": 37.5, "activity call": "inactive"}
{"Target gene": "Pum1", "siRNA no.": 2, "GFP, % of control": 65.6, "viability (ATP), % of control": 79.7, "activity call": "inactive"}
{"Target gene": "Pum1", "siRNA no.": 3, "GFP, % of control": 111, "viability (ATP), % of control": 59.1, "activity call": "inactive"}
{"Target gene": "Neu4", "siRNA no.": 1, "GFP, % of control": 91.8, "viability (ATP), % of control": 82.4, "activity call": "inactive"}
{"Target gene": "Neu4", "siRNA no.": 2, "GFP, % of control": 60.1, "viability (ATP), % of control": 73.4, "activity call": "inactive"}
{"Target gene": "Neu4", "siRNA no.": 3, "GFP, % of control": 45.2, "viability (ATP), % of control": 77.1, "activity call": "inactive"}
{"Target gene": "Carmil1", "siRNA no.": 1, "GFP, % of control": 64.9, "viability (ATP), % of control": 72.3, "activity call": "inactive"}
{"Target gene": "Carmil1", "siRNA no.": 2, "GFP, % of control": 101, "viability (ATP), % of control": 80.7, "activity call": "inactive"}
{"Target gene": "Carmil1", "siRNA no.": 3, "GFP, % of control": 13.4, "viability (ATP), % of control": 21.4, "activity call": "inactive"}

7 entries from above, reduced to “viability (ATP), % of control”.
Polr1b #2	112
Lbr #1	97.3
Lbr #2	77.7
Lbr #3	78
Utrn #1	40.5
Utrn #2	111
Myo18a #1	77.3
